The values below come from doi:10.1101/364463 (bioRxiv, 2019).

The chains behind the UniProt entries cited, without tags or fusion partners.
UniProt Q24117: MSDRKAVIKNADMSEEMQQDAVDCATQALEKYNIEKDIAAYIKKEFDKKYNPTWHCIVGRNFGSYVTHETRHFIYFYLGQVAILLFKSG

No constants are given. Whether binding was seen depends on the method and setting. Binding seen in cells or lysates may run through a third protein. A yes stands for co-enrichment or nearness to the bait. Other partners may have been found.

This assay addresses FLAG-dDYNLL1 (expressed in S2 cells) (Drosophila) (UniProt Q24117). In words: affinity purification with mass spectrometry.

B1: PI31 of S2 cells (endogenous) (protein, UniProt Q9V637 1-270)
chain: MESGSTAKTGDFFYGWDLLYKTVKADVSKKSDLLIALVHFLLTKHYNFRCVGVGDDKTLPEEEGSELLPDSWNDDDTKYSLRYVHDKMLYLLLGHITEGSLLINLLDINTKKVSNICVEPETLVPEVKGGITTIMPSASEIVERYRRELLDPVFTGNSREVTTQTTNSPRPIGSDPDPLRIGEPRRGGSFIPSAFEPRPFGFPDVGRGDLDPLGRGGHGNLFSFPSRPNMGPGPVPRFDPFNPLNPNRPGQGGINPDHMRPPDWNPDYYM
For B1, the binding result was “binds”.
